{
  "source": "patent US20240252581A1",
  "about": "(S.I.S. SHULOV INNOVATIVE SCIENCE LTD., priority 2021, published 2024)",
  "key": {"[1]": {"assay": "general procedure: Fmoc solid-phase peptide synthesis; chlorotrityl chloride resin (CTC); HBTU/HOBT, DIPEA", "conditions": "purification step, sodium salt"}, "[2]": {"assay": "general procedure: Fmoc solid-phase peptide synthesis; CTC; HBTU/HOBT, DIPEA", "conditions": "whole synthesis, scale of the general procedure CTC resin (125 gr), sodium salt (ZEP3Na, ZEP4Na)"}},
  "note": "Square brackets hold non-standard residues; d marks the D form. pGlu = O=C1CC[C@@H](C(=O)O)N1",
  "data": [
    {"substance": "pGlu-Asn-Trp-Lys(Octanoyl)-ONa", "values": [
      {"measurement": "final HPLC purity", "setting": "[1]", "result": 99.7, "unit": "%"},
      {"measurement": "step yield", "setting": "[1]", "result": 71, "unit": "%"}
    ]},
    {"substance": "[pGlu]NWT-OH", "values": [
      {"measurement": "final HPLC purity", "setting": "[2]", "result": 97.3, "unit": "%"}
    ]},
    {"substance": "pGlu-Asn-Trp-Thr-ONa", "values": [
      {"measurement": "final HPLC purity", "setting": "[1]", "result": 97.5, "unit": "%"},
      {"measurement": "step yield", "setting": "[1]", "result": 80, "unit": "%"}
    ]}
  ]
}
